Experimental data published in article PMC4919469.
No constants are given. Whether binding was seen depends on the method and setting. Some results given as binding are weak or reduced against the parent protein; the word gives no strength. Sequences can lack the tags named with a protein.

Chains of the proteins cited; added tags and fusions are not shown. Lines headed by an entry give the natural chain unless they say otherwise; changes in a name come on top. A line that says so, or that is headed by a name, gives the form on record, which may keep a tag or linker.
Cdc42Δ7Q61L (P60953, form named): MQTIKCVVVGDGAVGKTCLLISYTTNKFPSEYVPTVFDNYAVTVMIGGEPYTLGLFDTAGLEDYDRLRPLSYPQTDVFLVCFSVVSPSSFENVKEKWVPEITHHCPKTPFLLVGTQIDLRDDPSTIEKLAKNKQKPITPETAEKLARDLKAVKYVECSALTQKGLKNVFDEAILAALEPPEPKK

Molecular target: Cdc42Δ7Q61L (human) (UniProt P60953)
Test: NMR titration; 15N and 13C HSQC at 25 °C in 50 mM sodium phosphate, pH 5.5, 25 mM NaCl, 5 mM MgCl2, 5 mM DTT, 10% D2O; 15N-HR1 with unlabelled Cdc42Δ7Q61L·GMPPNP, or 15N-Cdc42Δ7Q61L·GMPPNP with unlabelled HR1 and/or N-WASP GBD; both purified

- binding: binds weakly
B1: TOCA1 HR1 domain (residues 330–426), untagged (domain or fragment, UniProt Q6GUF4 330-426)
chain: KGPALEDFSHLPPEQRRKRLQQRIDELSRELQKEMDQKDALNKMKDVYEKNPQMGDPSSLHPKIAETTSNIERLRMEIHKNEAWLSEVEGKVSQRSE
